At least one compound was matched to its structure with a doubt left.
System: TC projections to the ACx
Experiment: Whole-cell recordings of TC EPSCs in acute thalamocortical slices, bath application of antipsychotics / Drd2 antagonist
Type: cell-based, mouse
Conditions: 40 µM clozapine, 1 µM olanzapine
Description: Acute primary thalamocortical (TC) slices (400-μm thick) containing the left auditory cortex (ACx) and the left ventral part of the medial geniculate nuclei (MGv) of the thalamus were prepared as previously described^5. […] Primary TC slices were obtained from the left hemisphere by using a slicing angle of 15°.
Whole-cell recordings were obtained from cell bodies of layer (L) 3/4 thalamorecipient neurons in the ACx and thalamic-relay neurons in the MGv. Mice were chosen in a pseudorandom order, without the experimenter's prior knowledge of genotype or treatments. […] Voltage-clamp recordings were made using a Multiclamp 700B (Molecular Devices, Sunnyvale Calif.), digitized (10 kHz), and recorded using the pCLAMP 10.0 software (Molecular Devices, Sunnyvale Calif.). EPSCs were recorded at holding membrane potentials of −70 mV. In all experiments, membrane potentials were corrected for a liquid junction potential of −10 mV. […] Paired-pulse ratio (PPR) of TC and corticocortical (CC) EPSCs and the NMDAR/AMPAR ratio were measured as described previously^39. To ensure consistent access resistance of the recording electrode during long-term experiments, the peak amplitude of a brief (10-ms) hyperpolarizing test pulse (−5 mV) was monitored, which was given 250 ms after a stimulus. Access resistance (Ra) in recorded neurons was typically 10 to 25 MO. […]

SMILES: Cc1cc2c(s1)Nc1ccccc1N=C2N1CCN(C)CC1 [olanzapine]
- Effect on TC EPSCs (3.5-month old WT mice): but not WT
- Effect on TC EPSCs (3.5-month old miR-338+/− mice): increased TC EPSCs to similar magnitudes

Source: patent US10441601B2, “Method for treating schizophrenia” (St. Jude Children's Research Hospital, Inc., priority 2015, dated 2019)
